Experimental data: PubChem BioAssay AID1259327 (Drosophila RNAi Screening Center, 2017)
The whole screen tested about 3,100 reagents; shown is an unselected part. Of all reagents, 378 (12%) are marked active. 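Hits include both directions; z-score sign shows ATP rise or fall; raw luminescence values are not plate-normalised.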 The numbers tell different reagents against one gene apart. Names joined by + are all predicted targets of the reagent. The record does not give: the amount of reagent.

- Screen: 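Baseline ATP after transmembrane-protein gene knock-down with water vehicle only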
- Cell system: Drosophila S2R+ cells
- Knock-down reagent: long dsRNA against Drosophila genes
- Duration: 5 days (water added on day 4, read one day later)
- Challenge: water added as vehicle, no metal, one day before read-out
- Measurement: 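Total ATP measured by luciferase light, scaled to plate mean, duplicates averaged, then z-scored across plates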
- Reading the numbers: ATP z-score: higher = more total ATP than typical wells; ATP luminescence: higher = more total ATP
- Active means: 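a hit is any knock-down whose absolute ATP z-score is greater than 1.5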
- Meaning of the calls: active = hit: ATP up or down; inactive = no clear ATP change

gene knocked down,reagent,"ATP z-score, duplicate mean","ATP luminescence, replicate 1 (RLU)","ATP luminescence, replicate 2 (RLU)",Call
kek3 (kekkon 3),1,0.142,6.02e5,5.82e5,inactive
kek3 (kekkon 3),2,0.726,1.02e6,8.61e5,inactive
Tmx3 (Thioredoxin-related transmembrane protein 3),1,-0.218,6.78e5,7.38e5,inactive
Tmx3 (Thioredoxin-related transmembrane protein 3),2,0.378,5.07e5,4.74e5,inactive
CG34135 + CG11768,1,0.0179,6.12e5,7.32e5,inactive
CG34135 + CG11768,2,0.363,5.23e5,7.00e5,inactive
ccb (central complex broad),1,0.254,7.14e5,8.30e5,inactive
ACXD (Adenylyl cyclase X D),1,0.219,7.34e5,1.02e6,inactive
CG9467,1,0.202,7.09e5,7.44e5,inactive
CG30008,1,0.229,4.31e5,7.70e5,inactive
CG30008,2,0.826,2.51e5,9.72e5,inactive
CG6282,1,-0.541,7.84e5,7.34e5,inactive
CG43066,1,1.8,7.15e5,8.51e5,active
CG43066,2,1,8.33e5,9.02e5,inactive
CG9826,1,0.878,8.02e5,8.37e5,inactive
st (scarlet),1,-0.476,6.92e5,6.68e5,inactive
st (scarlet),2,0.703,8.69e5,9.42e5,inactive
AstC-R2 (Allatostatin C receptor 2),1,-1.25,7.04e5,6.85e5,inactive
AstC-R2 (Allatostatin C receptor 2),2,-0.719,4.42e5,3.70e5,inactive
Corin,1,-0.53,8.45e5,6.81e5,inactive
Corin,2,-0.669,4.11e5,4.29e5,inactive
MFS15 (Major Facilitator Superfamily Transporter 15),1,0.782,8.00e5,5.80e5,inactive
MFS15 (Major Facilitator Superfamily Transporter 15),2,0.749,9.75e5,8.56e5,inactive
CG1688,1,-0.599,4.91e5,5.67e5,inactive
CG2076,1,1.09,7.70e5,6.31e5,inactive
CG2076,2,-0.465,9.07e5,1.06e6,inactive
CG18609,1,1.71,7.19e5,8.30e5,active
CG18609,2,1.29,8.43e5,8.81e5,inactive
kek1 (kekkon 1),1,-0.0932,7.29e5,7.03e5,inactive
kek1 (kekkon 1),2,-0.885,5.17e5,4.92e5,inactive
kek1 (kekkon 1),3,-0.731,4.80e5,5.56e5,inactive
CG5250,1,-0.846,2.52e5,6.94e5,inactive
CG5250,2,-1.68,3.67e5,3.56e5,active
ste24b (ste24b prenyl protease type I),1,0.228,6.44e5,6.36e5,inactive
ste24b (ste24b prenyl protease type I),2,-0.477,7.32e5,8.51e5,inactive
mthl3 + mthl4,1,0.375,9.17e5,7.62e5,inactive
eca (eclair),1,-1.74,6.61e5,6.06e5,active
mthl11 (methuselah-like 11),1,-0.761,2.76e5,6.51e5,inactive
mthl11 (methuselah-like 11),2,-0.105,8.53e5,7.71e5,inactive
CG6356,1,-0.69,2.78e5,6.63e5,inactive
CG6356,2,-1.13,3.94e5,4.06e5,inactive
Tomosyn,1,1.64,7.82e5,8.29e5,active
Tomosyn,2,0.319,8.79e5,9.00e5,inactive
prom (prominin),1,1.49,7.08e5,7.04e5,inactive
prom (prominin),2,0.924,9.16e5,9.81e5,inactive
prom (prominin),3,0.114,8.35e5,1.24e6,inactive
prom (prominin),4,-1.49,3.83e5,3.45e5,inactive
ttv (tout-velu),1,-0.114,7.41e5,6.96e5,inactive
ttv (tout-velu),2,0.941,9.98e5,9.36e5,inactive
Toll-9,1,-1.09,7.93e5,7.15e5,inactive
CG14606,1,0.687,9.55e5,1.01e6,inactive
Tehao,1,-0.394,6.79e5,6.90e5,inactive
Tehao,2,0.931,4.89e5,6.03e5,inactive
"Alg12 (Alg12 alpha-1,6-mannosyltransferase)",1,0.239,3.42e5,7.05e5,inactive
"Alg12 (Alg12 alpha-1,6-mannosyltransferase)",2,-1.05,4.01e5,4.11e5,inactive
Tmtc4 (Transmembrane O-mannosyltransferase targeting cadherins 4),1,-0.511,2.77e5,7.04e5,inactive
Tmtc4 (Transmembrane O-mannosyltransferase targeting cadherins 4),2,-1.07,3.42e5,4.45e5,inactive
CG33635,1,-0.141,7.30e5,7.24e5,inactive
CG14219,1,-0.125,6.54e5,8.08e5,inactive
CG14219,2,1.81,8.44e5,1.20e6,active
SERCA (Sarco/endoplasmic reticulum Ca(2+)-ATPase),1,0.0116,7.02e5,7.63e5,inactive
SERCA (Sarco/endoplasmic reticulum Ca(2+)-ATPase),2,-0.778,7.54e5,7.53e5,inactive
sand (sandman),1,0.524,7.22e5,6.12e5,inactive
sand (sandman),2,0.912,5.16e5,5.39e5,inactive
CG6293,1,1.33,8.90e5,7.97e5,inactive
CG6293,2,1.26,1.13e6,8.30e5,inactive
Lgr4 (Leucine-rich repeat-containing G protein-coupled receptor 4),1,-0.248,5.53e5,6.42e5,inactive
Lgr4 (Leucine-rich repeat-containing G protein-coupled receptor 4),2,-1.66,5.43e5,7.83e5,active
Lgr4 (Leucine-rich repeat-containing G protein-coupled receptor 4),3,-0.38,7.95e5,8.53e5,inactive
Spase22-23 (Spase 22/23-subunit),1,-0.552,7.00e5,6.64e5,inactive
CG15531,1,2.27,7.65e5,7.12e5,active
unc-5,1,-2.04,6.13e5,7.67e5,active
unc-5,2,0.497,5.86e5,7.43e5,inactive
unc-5,3,1.78,9.19e5,9.55e5,active
CG17928,1,0.0925,7.06e5,7.65e5,inactive
CG17928,2,-1.5,3.33e5,3.95e5,inactive
SLC5A11 (Sodium/solute co-transporter-like 5A11),1,1.3,4.86e5,6.60e5,inactive
SLC5A11 (Sodium/solute co-transporter-like 5A11),2,-1.1,4.23e5,3.79e5,inactive
CNT2 (Concentrative nucleoside transporter 2),1,0.211,7.69e5,7.37e5,inactive
CG16904,1,0.36,7.62e5,7.24e5,inactive
CG16904,2,-0.541,7.56e5,7.59e5,inactive
cdm (cadmus),1,0.439,7.54e5,7.48e5,inactive
CG10182,1,-0.865,2.69e5,6.46e5,inactive
alka (alkaliphile),1,-0.555,6.09e5,5.30e5,inactive
Nmdar2 (NMDA receptor 2),1,-0.706,6.28e5,7.06e5,inactive
Nmdar2 (NMDA receptor 2),2,0.0795,4.75e5,6.92e5,inactive
CG14778,1,-0.262,5.23e5,6.02e5,inactive
CG14778,2,-0.883,4.13e5,6.15e5,inactive
